One molecule from publication doi:10.1101/2021.05.18.444567 can be followed below.

Results are given in words; binding and its absence hold for the method and conditions named. Binding seen in cells or lysates may run through a third protein. Here binding means that the protein was enriched with, or labelled near, the bait; the list need not be complete.

This assay concerns the target FLAG-METTL5 (human). Briefly: affinity purification with mass spectrometry.

B1: TRMT112 (protein, UniProt Q9UI30 1-125)
chain: MKLLTHNLLSSHVRGVGSRGFPLRLQATEVRICPVEFNPNFVARMIPKVEWSAFLEAADNLRLIQVPKGPVEGYEENEEFLRTMHHLLLEVEVIEGTLQCPESGRMFPISRGIPNMLLSEEETES
With B1, the binding entry is “binds”.
